In this data set the test system is Dicamba-selected soybean shoots.

This passage reports escape rate results from USRE44971E1, “Method for selection of transformed cells” (priority 2006, dated 2014).

Read-outs that look alike come from different tables or passages of the source.

Take `COc1c(Cl)ccc(Cl)c1C(=O)O` [dicamba, 3,6-dichloro-o-anisic acid]: the escape rate entry runs as follows: (rooting in Oasis plugs in liquid medium with 0.01 mg/l dicamba) “about 33%”; (roots induced in the semi-solid medium) 53%.
